From US20230393122A1 (priority 2022, published 2023)
At least one compound was matched to its structure with a doubt left.

How the values were obtained:
SARS-CoV-2 WT [1] = experiment: Viral load reduction assay in EPSC-derived eSTB cells (qRT-PCR of supernatant viral copies); format: cell-based
MERS-CoV = format: cell-based; details: 48 h.p.i., efficiency comparable to that in Vero E6 cells
SARS-CoV-2 WT [2] = experiment: Viral load reduction assay in naïve-eSTB cells; format: cell-based; details: compared with EPSC-eSTBs
[3] = system: SARS-CoV-2 infected eSTBs; format: cell-based, human

**Q.** Which “Viral copy in the supernatant, SARS-CoV-2 WT (FIG. 17B)” value (SARS-CoV-2 WT [1]) does the source give for `CCC(CC)COC(=O)[C@H](C)N[P@](=O)(OC[C@H]1O[C@@](C#N)(c2ccc3c(N)ncnn23)[C@H](O)[C@@H]1O)Oc1ccccc1` [remdesivir] here?
**A.** dose-dependent inhibition

**Q.** What about the “MERS-CoV replication in eSTBs” value (MERS-CoV) of the same molecule?
**A.** effectively block

**Q.** What about the “IC50 against SARS-CoV-2 in naïve-eSTBs” value (SARS-CoV-2 WT [2]) of the same molecule?
**A.** similarly low

**Q.** What about the “eSTB development and differentiation along PI-TB to PI-STB pseudotime trajectory” value [3] of the same molecule?
**A.** partially rescued
